Protein sequences can lack the tags named with them.
Legend:
[1] = tested on: T1, HcdR2 (LuxR family regulator) (Streptomyces mobaraensis US-43); assay: competition with a labelled probe; settings: 200-fold excess unlabeled vs biotin hcdT-2p, 400 nM HcdR2; EMSA: 10 mM Tris-HCl, 50 mM KCl, 1 mM DTT, pH 7.5 (1x of 10x buffer), 20 fmol probe in 20 uL, 25-2000 nM protein, room temperature 20 min; native 5% gel, 0.5x TBE, 4 C; recombinant protein; residues 1-930; protein details: N-terminal His10 (pET-16b); label: none (unlabeled competitor); probe letters rebuilt from the primers and the genome
T1 sequence (looked up): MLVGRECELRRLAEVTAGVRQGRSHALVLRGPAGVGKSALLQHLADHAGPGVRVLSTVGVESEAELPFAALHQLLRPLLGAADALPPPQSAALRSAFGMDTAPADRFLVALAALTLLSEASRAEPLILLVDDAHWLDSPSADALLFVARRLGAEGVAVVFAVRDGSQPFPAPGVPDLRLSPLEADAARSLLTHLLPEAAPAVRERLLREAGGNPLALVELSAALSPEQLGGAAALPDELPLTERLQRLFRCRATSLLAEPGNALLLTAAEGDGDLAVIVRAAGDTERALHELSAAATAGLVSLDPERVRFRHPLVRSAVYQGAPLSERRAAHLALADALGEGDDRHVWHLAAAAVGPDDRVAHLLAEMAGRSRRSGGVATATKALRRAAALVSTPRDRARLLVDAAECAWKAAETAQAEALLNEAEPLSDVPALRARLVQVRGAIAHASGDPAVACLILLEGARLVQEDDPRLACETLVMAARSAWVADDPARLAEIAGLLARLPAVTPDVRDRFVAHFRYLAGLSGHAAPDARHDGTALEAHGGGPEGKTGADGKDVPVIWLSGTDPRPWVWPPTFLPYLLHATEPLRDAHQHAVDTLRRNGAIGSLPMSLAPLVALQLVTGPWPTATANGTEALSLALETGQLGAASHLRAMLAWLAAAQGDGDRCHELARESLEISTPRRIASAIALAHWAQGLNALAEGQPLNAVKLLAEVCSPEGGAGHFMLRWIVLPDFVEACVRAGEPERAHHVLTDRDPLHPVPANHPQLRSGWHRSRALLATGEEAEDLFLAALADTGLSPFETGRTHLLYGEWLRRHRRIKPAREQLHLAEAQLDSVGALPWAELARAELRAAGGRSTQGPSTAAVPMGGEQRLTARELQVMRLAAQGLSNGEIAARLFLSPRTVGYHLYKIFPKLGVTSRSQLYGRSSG

[2] = tested on: T1, HcdR2 (LuxR family regulator) (Streptomyces mobaraensis US-43); assay: EMSA; settings: shift decreased by 200-fold unlabeled specific competitor; EMSA: 10 mM Tris-HCl, 50 mM KCl, 1 mM DTT, pH 7.5 (1x of 10x buffer), 20 fmol probe in 20 uL, 25-2000 nM protein, room temperature 20 min; native 5% gel, 0.5x TBE, 4 C; recombinant protein; residues 1-930; protein details: N-terminal His10 (pET-16b); label: 5' biotin; probe letters rebuilt from the primers and the genome

Row | Sequence | binding result [1] | binding result [2]
1 | CATGAAGGCCGGCACTTTGGCCTGGGCGGACGCGGACCGGCGGGACTCCTGAGGGGCGCGAGCTGCGTAGGGGCTCATAGGGGTTGTAGGGGATGAAGTTCATCCTCCCCTCTTCGTAGGATGGCTTTGCCCGAGGGAACACGGAAAGGCGGCGTACCGGAAGCCGCGAACCACCAGGGGCGGCGGATTCTCCGAATTCGCCCGTCCGTCATGTGTTCCGCCCTCGGCTTCGCACTGTCCTGGAAGGGGACACGAGGAGCGAATCTCTGCCAGCGCTGAGGGCCCAGGGAGGTCTTGTATGCCGGTCGGTGTCTTAGGGGTTGGAT (double strand) [her3p] | binds | –
2 | CGATGCTCCTTTCCCTGGGCGCACTCTGTCATATGACAGATACATTCACTGATCAATCCGCTCTTATCCGGCCAGGATTGACGCACTTCCTCCGGTTACCTGATCGCCGGCCCCCGTCGAGCGACAGATGCCCGACCGTCCGGGGCTGCCGGAAGGTTGCTGTCGCGGCAGGCCCCCAGAGGCGGCACCACGCTCGGGGCACCGCCGCCACAGGACCGTTCTCACGAGGAATGCACGCCTGGCGTGGGTGGATATATGTCGTTGTCTGATGTTGCTTCGAGTCGCGTGTCCGCCGGCGAGGGA (double strand) [hcdR2-Bp] | – | binds
3 | GCGCCGTCGCGCATCGTCAAGCCGTGGGCTACGGTAATACGAGCGAAGCTCGCGCGCCGGATGCCGAAGCGCGGGCCCGCAGACGCCCATCCGCAGGTGACGACACGAGCATCGCGCCGCATCGAGCCGGCCGTGAACCGCGACTCCGTTGCTTTCCCCCTTACTTCCGGACCGGATGGGCCACCTCTGCCCCGCCGCGTGGGCACGGCCCGACTCACCACTGTGGACAGCTCGTTCTTGAGGACTCGGGGGTGGGTGACGATCGCGACCGACCGGCCGCTCGACGGGGCCCGCTCCGAGCAACCGGCAGCGTGGAGCCGCCGTGCGGTGTCCGCTTCCTCCTGTGACGTCGAGCCGATCACCATTCCTCGTGCGTGCGGCAGACAGTGCTGCTGCGACGGCGCCTCCTTCTGAGGTTGCCCGGCTCCCACTGTCCGCGTCCGCGCCTCGAAGGAACTTCCATGGCATCCACAGTG (double strand) [hcdT-2p] | – | binds

Source: publication PMC6794829
